{
  "sequences": {"note": "Protein sequences, listed by entry. Tags and fused reporters are not part of them.", "UniProt Q9EPW1": "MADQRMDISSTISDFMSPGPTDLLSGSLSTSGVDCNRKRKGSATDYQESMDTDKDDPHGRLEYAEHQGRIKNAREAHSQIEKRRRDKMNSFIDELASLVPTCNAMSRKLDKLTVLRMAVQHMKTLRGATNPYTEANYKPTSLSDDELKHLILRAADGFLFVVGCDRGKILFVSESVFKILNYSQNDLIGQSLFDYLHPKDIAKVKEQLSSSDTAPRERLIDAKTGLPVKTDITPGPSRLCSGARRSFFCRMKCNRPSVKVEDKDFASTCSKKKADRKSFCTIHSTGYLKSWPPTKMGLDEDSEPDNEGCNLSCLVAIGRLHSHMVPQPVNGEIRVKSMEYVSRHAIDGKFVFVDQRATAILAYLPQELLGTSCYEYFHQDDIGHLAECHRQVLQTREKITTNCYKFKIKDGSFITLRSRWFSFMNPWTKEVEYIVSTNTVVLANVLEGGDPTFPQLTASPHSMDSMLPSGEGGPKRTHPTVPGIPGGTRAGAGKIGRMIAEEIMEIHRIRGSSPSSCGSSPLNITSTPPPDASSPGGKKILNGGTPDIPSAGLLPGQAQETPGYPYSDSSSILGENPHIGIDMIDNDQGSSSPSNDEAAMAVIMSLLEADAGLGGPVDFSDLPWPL", "UniProt P24587": "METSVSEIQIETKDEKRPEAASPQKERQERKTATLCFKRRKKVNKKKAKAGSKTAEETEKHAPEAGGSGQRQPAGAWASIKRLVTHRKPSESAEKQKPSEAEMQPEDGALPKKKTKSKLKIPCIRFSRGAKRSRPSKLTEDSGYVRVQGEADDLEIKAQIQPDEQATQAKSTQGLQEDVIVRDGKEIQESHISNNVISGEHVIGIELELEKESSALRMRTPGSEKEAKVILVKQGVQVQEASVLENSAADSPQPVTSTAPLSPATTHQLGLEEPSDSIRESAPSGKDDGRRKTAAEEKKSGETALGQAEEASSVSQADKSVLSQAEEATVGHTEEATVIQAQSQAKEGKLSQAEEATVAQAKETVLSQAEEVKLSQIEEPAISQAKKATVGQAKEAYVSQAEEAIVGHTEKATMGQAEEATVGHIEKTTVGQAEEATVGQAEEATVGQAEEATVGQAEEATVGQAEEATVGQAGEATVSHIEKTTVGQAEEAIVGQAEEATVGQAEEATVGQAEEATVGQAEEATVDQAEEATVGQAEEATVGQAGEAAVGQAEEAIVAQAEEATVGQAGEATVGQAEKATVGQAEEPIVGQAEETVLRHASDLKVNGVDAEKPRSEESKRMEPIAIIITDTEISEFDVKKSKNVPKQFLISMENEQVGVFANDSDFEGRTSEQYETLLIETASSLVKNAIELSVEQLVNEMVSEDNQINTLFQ", "UniProt P12368": "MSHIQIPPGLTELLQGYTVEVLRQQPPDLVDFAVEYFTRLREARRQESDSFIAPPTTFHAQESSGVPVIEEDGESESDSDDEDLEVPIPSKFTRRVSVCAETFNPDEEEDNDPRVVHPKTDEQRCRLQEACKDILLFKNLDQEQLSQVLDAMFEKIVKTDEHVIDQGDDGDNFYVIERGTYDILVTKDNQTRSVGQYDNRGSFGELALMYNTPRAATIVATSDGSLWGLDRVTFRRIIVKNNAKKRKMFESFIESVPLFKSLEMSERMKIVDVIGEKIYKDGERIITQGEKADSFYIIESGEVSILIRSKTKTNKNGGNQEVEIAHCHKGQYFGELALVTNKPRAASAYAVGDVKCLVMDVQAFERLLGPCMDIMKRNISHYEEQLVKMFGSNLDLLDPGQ", "UniProt P12369": "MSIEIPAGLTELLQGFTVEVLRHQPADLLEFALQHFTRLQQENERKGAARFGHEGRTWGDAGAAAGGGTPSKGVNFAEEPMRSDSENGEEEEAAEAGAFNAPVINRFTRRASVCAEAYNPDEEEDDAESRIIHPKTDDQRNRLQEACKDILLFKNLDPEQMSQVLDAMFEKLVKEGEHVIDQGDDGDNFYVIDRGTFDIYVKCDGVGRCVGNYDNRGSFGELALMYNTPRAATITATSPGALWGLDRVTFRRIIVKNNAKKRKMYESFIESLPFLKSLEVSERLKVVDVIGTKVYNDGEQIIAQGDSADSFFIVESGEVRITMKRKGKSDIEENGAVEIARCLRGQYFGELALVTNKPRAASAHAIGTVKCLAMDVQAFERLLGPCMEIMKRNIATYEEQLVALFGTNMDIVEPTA", "UniProt P09456": "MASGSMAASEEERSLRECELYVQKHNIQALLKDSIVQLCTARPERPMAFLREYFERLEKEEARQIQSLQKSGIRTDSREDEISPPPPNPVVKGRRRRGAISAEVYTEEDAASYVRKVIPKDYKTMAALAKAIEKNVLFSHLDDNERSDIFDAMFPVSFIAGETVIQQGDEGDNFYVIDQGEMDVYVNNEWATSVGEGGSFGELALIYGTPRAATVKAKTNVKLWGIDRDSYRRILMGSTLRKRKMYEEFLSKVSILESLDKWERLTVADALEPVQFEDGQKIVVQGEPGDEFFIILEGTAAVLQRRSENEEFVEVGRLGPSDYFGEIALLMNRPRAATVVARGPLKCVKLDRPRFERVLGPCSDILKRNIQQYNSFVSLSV"},
  "source": "paper PMC7554872",
  "molecules": {"B1": {"name": "Perilipin1 (protein, UniProt P43884 1-517)", "chain": "MSMNKGPTLLDGDLPEQENVLQRVLQLPVVSGTCECFQKTYNSTKEAHPLVASVCNAYEKGVQGASNLAAWSMEPVVRRLSTQFTAANELACRGLDHLEEKIPALQYPPEKIASELKGTISTRLRSARNSISVPIASTSDKVLGATLAGCELALGMAKETAEYAANTRVGRLASGGADLALGSIEKVVEYLLPPDKVESAPSSGRQKTQKAPKAKPSLLRRVSTLANTLSRHTMQTTARALKRGHSLAMWIPGVAPLSSLAQWGASAAMQVVSRRQSEVRVPWLHNLAASKDENHEDQTDTEGEETDEEEEEEESEAEENVLREVTALPTPLGFLGGVVHTVQKTLQNTISAVTWAPAAVLGTVGRILHLTPAQAVSSTKGRAMSLSDALKGVTDNVVDTVVHYVPLPRLSLMEPESEFQDIDNPPAEVERKGSGSRPASPESTARPGQPRAACAVRGLSAPSCPDLDDKTETSARPGLLAMPREKPARRVSDSFFRPSVMEPILGRTQYSQLRKKS"}, "B2": {"name": "adipose tissue triacylglycerol lipase (enzyme, UniProt P0C548 1-478)", "chain": "MFPRETKWNISFAGCGFLGVYHIGVASCLREHAPFLVANATHIYGASAGALTATALVTGACLGEAGANIIEVSKEARKRFLGPLHPSFNLVKTIRGCLLKTLPADCHTRASGRLGISLTRVSDGENVIISHFSSKDELIQANVCSTFIPVYCGLIPPTLQGVRYVDGGISDNLPLYELKNTITVSPFSGESDICPQDSSTNIHELRITNTSIQFNLRNLYRLSKALFPPEPMVLREMCKQGYRDGLRFLRRNGLLNQPNPLLALPPVVPQEEDAEEAAVTEERTGGEDRILEHLPARLNEALLEACVEPKDLMTTLSNMLPVRLATAMMVPYTLPLESAVSFTIRLLEWLPDVPEDIRWMKEQTGSICQYLVMRAKRKLGDHLPSRLSEQVELRRAQSLPSVPLSCATYSEALPNWVRNNLSLGDALAKWEECQRQLLLGLFCTNVAFPPDALRMRAPASPTATDPATPQDPSGLPPC"}},
  "note": "No constants are given. Whether binding was seen depends on the method and setting. Binding seen in cells or lysates may run through a third protein. Some binding calls cover weakened binding; strength is not graded here.",
  "data": [
    {"target": "Brain and muscle Arnt-like (BMAL)1 protein (rat (endogenous in primary adipocytes of Wistar rats)) (UniProt Q9EPW1)", "test": "co-IP; lysate (1 mg/mL protein) of primary adipocytes from epididymal adipose tissue of E-SED, L-SED, E-EX and L-EX rats incubated with antibodies against BMAL1; immunocomplexes recovered on Dynabeads Protein G; blots with antibodies against each partner", "values": [
      {"molecule": "protein kinase A (PKA)-anchoring protein 150 (from UniProt P24587 1-714)", "binding": "binds"},
      {"molecule": "regulatory subunit RIIα of PKA (from UniProt P12368 1-401)", "binding": "binds"},
      {"molecule": "regulatory subunit RIIβ of PKA (from UniProt P12369 1-416)", "binding": "binds"},
      {"molecule": "regulatory subunit RIα of PKA (from UniProt P09456 1-381)", "binding": "binds"},
      {"molecule": "B1", "binding": "binds"},
      {"molecule": "B2", "binding": "binds"}
    ]}
  ]
}
